Experimental data: PubChem BioAssay AID1508597 (Cure First, 2020)
Shown is an unselected part of the about 2,100 reagents, under one of the conditions tested. 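Calls flag viability under 80% in either arm, not effects specific to rucaparib; the reference for percent is not stated.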 Some reagents were tested in more than one well and are listed for each. Not stated in the record: the 100% reference.

Assay: 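Genes whose silencing sensitises or protects ovarian cancer cells against rucaparib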 (primary screen)
Cell system: human ovarian carcinoma lines grown from tumours: OCI-P5x (papillary serous) and OCI-C5x (clear cell)
Knock-down reagent: siRNA pool against human genes, 1.25 pmol siRNA per well
Time to read-out: 72 h or 96 h, depending on the cell culture
Challenge: rucaparib 20 µM (about IC30) or vehicle, present until read-out
Rucaparib or vehicle: Rucaparib
Cell line: OCI-P5x (serous)
Measurement: 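Luminescent ATP-based viability assay read 72 or 96 h after transfection, depending on culture, given as normalised percent viability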
Reading the numbers: viability, normalised: higher = more viable cells remaining
Hit rule: 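a well counts as a hit if its normalised viability is under 80 percent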
Meaning of the calls: active = viability under 80%; inactive = viability 80% or more

With ANKK1 [SID405527763], technical replicate 1, the values are viability, normalised (%) = 80.5; inactive.
With ANKK1 [SID405527763], technical replicate 2 the deposit lists viability, normalised (%) = 73.2; active.
ANKK1 [SID405527763], technical replicate 3 scored viability, normalised (%) = 74; active.
For IFI6 [SID405526887], technical replicate 1, the values are viability, normalised (%) = 36.7; active.
IFI6 [SID405526887], technical replicate 2 scored viability, normalised (%) = 42; active.
For IFI6 [SID405526887], technical replicate 3 the deposit lists viability, normalised (%) = 45; active.
With TSPYL1 [SID405526591], technical replicate 1 the deposit lists viability, normalised (%) = 65.4; active.
For TSPYL1 [SID405526591], technical replicate 2, the entry reads viability, normalised (%) = 63; active.
With TSPYL1 [SID405526591], technical replicate 3, the entry reads viability, normalised (%) = 55.4; active.
CDCA8 [SID405528083], technical replicate 1 showed viability, normalised (%) = 85.4; inactive.
For CDCA8 [SID405528083], technical replicate 2 the deposit lists viability, normalised (%) = 81.6; inactive.
With CDCA8 [SID405528083], technical replicate 3, the values are viability, normalised (%) = 67.7; active.
For STK38 [SID405527657], technical replicate 1, the entry reads viability, normalised (%) = 82.4; inactive.
With STK38 [SID405527657], technical replicate 2, the entry reads viability, normalised (%) = 91; inactive.
With STK38 [SID405527657], technical replicate 3, the entry reads viability, normalised (%) = 67.6; active.
BPTF [SID405528039], technical replicate 1 scored viability, normalised (%) = 42.3; active.
BPTF [SID405528039], technical replicate 2 scored viability, normalised (%) = 45.2; active.
BPTF [SID405528039], technical replicate 3 showed viability, normalised (%) = 45.3; active.
SOD2 [SID405527355], technical replicate 1 showed viability, normalised (%) = 59.6; active.
SOD2 [SID405527355], technical replicate 2 scored viability, normalised (%) = 56.8; active.
With SOD2 [SID405527355], technical replicate 3 the deposit lists viability, normalised (%) = 53.4; active.
With RAG2 [SID405527226], technical replicate 1, the values are viability, normalised (%) = 38.3; active.
For RAG2 [SID405527226], technical replicate 2 the deposit lists viability, normalised (%) = 46.2; active.
RAG2 [SID405527226], technical replicate 3 scored viability, normalised (%) = 50.5; active.
For RAD18 [SID405528501], technical replicate 1, the entry reads viability, normalised (%) = 51.2; active.
With RAD18 [SID405528501], technical replicate 1, the values are viability, normalised (%) = 74.9; active.
For RAD18 [SID405528501], technical replicate 2 the deposit lists viability, normalised (%) = 42.6; active.
With RAD18 [SID405528501], technical replicate 2, the entry reads viability, normalised (%) = 62.9; active.
For RAD18 [SID405528501], technical replicate 3, the entry reads viability, normalised (%) = 46.1; active.
RAD18 [SID405528501], technical replicate 3 showed viability, normalised (%) = 73; active.
MLLT1 [SID405528339], technical replicate 1 scored viability, normalised (%) = 126; inactive.
With MLLT1 [SID405528339], technical replicate 2, the values are viability, normalised (%) = 114; inactive.
MLLT1 [SID405528339], technical replicate 3 gave viability, normalised (%) = 122; inactive.
TOP3B [SID405528498], technical replicate 1 gave viability, normalised (%) = 93.9; inactive.
With TOP3B [SID405528498], technical replicate 2, the entry reads viability, normalised (%) = 112; inactive.
TOP3B [SID405528498], technical replicate 3 gave viability, normalised (%) = 85.5; inactive.
HIPK1 [SID405527680], technical replicate 1 showed viability, normalised (%) = 118; inactive.
For HIPK1 [SID405527680], technical replicate 2, the entry reads viability, normalised (%) = 112; inactive.
HIPK1 [SID405527680], technical replicate 3 scored viability, normalised (%) = 100; inactive.
PER1 [SID405527135], technical replicate 1 gave viability, normalised (%) = 52.2; active.
For PER1 [SID405527135], technical replicate 1, the values are viability, normalised (%) = 70.4; active.
PER1 [SID405527135], technical replicate 2 gave viability, normalised (%) = 48.4; active.
PER1 [SID405527135], technical replicate 3 scored viability, normalised (%) = 53.4; active.
PER1 [SID405527135], technical replicate 3 scored viability, normalised (%) = 56.9; active.

6 entries from above, sorted by “viability, normalised (%)”, ascending.
RAD18 [SID405528501], technical replicate 2 — viability, normalised (%) = 42.6; outcome = active
RAD18 [SID405528501], technical replicate 3 — viability, normalised (%) = 46.1; outcome = active
RAD18 [SID405528501], technical replicate 1 — viability, normalised (%) = 51.2; outcome = active
RAD18 [SID405528501], technical replicate 2 — viability, normalised (%) = 62.9; outcome = active
RAD18 [SID405528501], technical replicate 3 — viability, normalised (%) = 73; outcome = active
RAD18 [SID405528501], technical replicate 1 — viability, normalised (%) = 74.9; outcome = active
